Patent publication US20150133411A1, “COMPOUNDS WITH TRPV4 ACTIVITY, COMPOSITIONS AND ASSOCIATED METHODS THEREOF” (The University of Utah Research Foundation, priority 2012, published 2015)
Some entries share one result that the patent states for a list of compounds.

Test system: MB model of glaucoma
Assay: IOP time course after single eye drop in MB model of glaucoma
Format: in vivo, mouse
Protocol: Specifically, microbeads (MBs) were injected into the anterior chamber of a mouse eye as described in Example 2 with PBS-injected eyes used as controls. Compound 1 (10 mg/kg body weight) (or PBS vehicle) was injected intraperitoneally (IP). […] IOP was measured in mice between 10:00 AM and 1:00 PM with the TonoLab rebound tonometer (Colonial Medical Supply, Franconia, NH/Tyolat, Helsinki, Finland). Mice were sedated with IP injection of Avertin with final amount calculated by weight (e.g., 0.5 ml for 21-24 g animals). Animals were placed on a jack stand platform and the tonolab was clamped on a ring stand and centered onto the mid-cornea. During measurements animal were neither restrained nor touched. Each eye was measured twenty consecutive times, the highest and lowest values were discarded and the values were averaged.
FIG. 9 illustrates the short-term effects of a single dose of Compound 1 (eye drop) in the MB model of glaucoma. IOP was measured as described in Example 3 at the indicated time points after receiving a drop of Compound 1. Compound 1 reduced IOP beginning at 1 hour after dosing and continued through 6 hours after dosing.
FIG. 10 illustrates a time course of Compounds 1, 2, 5 and Compound 2-HCl as well as a positive control compound, timolol, with regard to inhibition of IOP. The experiment was conducted as described in Example 9. Each of the TRPV4 antagonists reduced IOP with a similar time course. Specifically, Compounds 1, 2, 5 and Compound 2-HCl reduced IOP for at least 6 hours after dosing.
FIG. 11 illustrates a time course of Compound 2-HCl activity. The experiment was conducted as described in Example 9. […] 2
FIG. 12 illustrates a comparison of the time course of Compound 2-HCl and Compound 5. The experiment was conducted as described in Example 9.

Row | Structure (SMILES) | time after dosing through which IOP reduction lasts | time after dosing at which IOP reduction begins [h]
1 | Cc1c(C(=O)Nc2cccc(C(=O)OC(C)C)c2)cc(-c2ccccc2)n1CCCN1CCOCC1 [Compound 2, iso-propyl 3-(2-methyl-1-(3-morpholinopropyl)-5-phenyl-1H-pyrrole-3-carboxamido)benzoate] | at least 6 hours | 
2 | Cc1c(C(=O)Nc2cccc(C(=O)OC(C)C)c2)cc(-c2ccccc2)n1CCCN1CCOCC1.Cl [Compound 2-HCl, iso-propyl 3-(2-methyl-1-(3-morpholinopropyl)-5-phenyl-1H-pyrrole-3-carboxamido)benzoate hydrochloride] | at least 6 hours | ≤ 1
